{"source": "paper PMC4923194", "about": "“The Crystal Structure of the C-Terminal Domain of the Salmonella enterica PduO Protein: An Old Fold with a New Heme-Binding Mode” (Frontiers in Microbiology, 2016)", "key": {"[1]": {"target": "C-terminal domain of the Salmonella enterica PduO protein (PduOC) (Salmonella enterica subsp. enterica serovar Typhimurium)", "assay": "crystal structure; PduOC co-crystallized with heme; 0.1 M magnesium formate, 15% (w/v) PEG 3350; protein in 20 mM Tris/HCl pH 7; space group P21; both purified"}, "[2]": {"target": "C-terminal domain of the Salmonella enterica PduO protein (PduOC) (Salmonella enterica subsp. enterica serovar Typhimurium)", "assay": "SDS-PAGE of unboiled sample; 15 ug of isolated His-tag-free PduOC, unboiled and boiled, stained with PageBlue; both purified"}}, "note": "No constants are given. Whether binding was seen depends on the method and setting. Some entries that bind do so weakly or less than the wild type."}
{"substance": "C-terminal domain of the Salmonella enterica PduO protein (PduOC) (from UniProt A0A0F6B395 194-336) (domain or fragment)", "values": [{"measurement": "binding", "setting": "[1]", "result": "binds"}, {"measurement": "binding", "setting": "[2]", "result": "binds"}]}
